Results from publication PMC12509758.
No constants are given. Whether binding was seen depends on the method and setting. Binding seen in cells or lysates may run through a third protein. Some results given as binding are weak or reduced against the parent protein; the word gives no strength. For some assays here: Tags and fused reporters may be left off the sequences shown. One block for each substance: values may come before it.

By UniProt entry, the sequences of proteins in these tests, tags left out.
UniProt P49841: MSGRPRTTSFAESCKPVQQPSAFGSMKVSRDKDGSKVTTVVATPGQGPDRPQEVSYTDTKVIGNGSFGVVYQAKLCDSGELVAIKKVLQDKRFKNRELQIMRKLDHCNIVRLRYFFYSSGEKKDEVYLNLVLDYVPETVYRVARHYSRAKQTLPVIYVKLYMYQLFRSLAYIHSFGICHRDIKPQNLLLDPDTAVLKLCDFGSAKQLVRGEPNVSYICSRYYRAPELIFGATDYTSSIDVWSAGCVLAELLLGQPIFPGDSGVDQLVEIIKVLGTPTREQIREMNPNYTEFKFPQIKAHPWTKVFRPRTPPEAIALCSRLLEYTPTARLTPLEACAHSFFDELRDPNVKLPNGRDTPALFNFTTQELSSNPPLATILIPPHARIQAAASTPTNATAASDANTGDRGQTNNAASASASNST
UniProt Q969H0: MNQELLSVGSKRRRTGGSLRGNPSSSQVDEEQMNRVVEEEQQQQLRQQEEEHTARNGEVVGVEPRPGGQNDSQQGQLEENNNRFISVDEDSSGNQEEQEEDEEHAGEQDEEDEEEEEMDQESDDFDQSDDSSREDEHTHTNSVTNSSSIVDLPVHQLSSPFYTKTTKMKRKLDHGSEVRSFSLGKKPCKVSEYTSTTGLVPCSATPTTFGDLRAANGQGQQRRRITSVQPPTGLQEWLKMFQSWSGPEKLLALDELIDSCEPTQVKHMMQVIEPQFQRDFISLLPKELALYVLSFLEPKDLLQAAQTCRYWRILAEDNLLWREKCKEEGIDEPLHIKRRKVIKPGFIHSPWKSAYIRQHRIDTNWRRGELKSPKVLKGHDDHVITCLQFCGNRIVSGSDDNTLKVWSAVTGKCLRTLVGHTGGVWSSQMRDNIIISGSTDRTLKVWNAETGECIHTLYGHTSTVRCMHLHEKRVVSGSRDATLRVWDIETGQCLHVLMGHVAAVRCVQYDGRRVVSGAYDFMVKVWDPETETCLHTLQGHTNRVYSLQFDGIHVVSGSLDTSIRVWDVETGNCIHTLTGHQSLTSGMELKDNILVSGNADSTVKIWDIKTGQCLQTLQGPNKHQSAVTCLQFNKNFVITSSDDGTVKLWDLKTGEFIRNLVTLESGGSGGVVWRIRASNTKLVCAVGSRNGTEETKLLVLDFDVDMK

Columns and labels:
[1] = target: T1, Flag-tagged FBXO9 (wild type) (UniProt Q9UK97); test: co-IP; Flag-FBXO9 and Myc-YAP (wild type, S338A/T342A or deletion mutants) co-transfected into HEK293 cells for 24 h; total lysates subjected to IP and Western blot
T1 sequence: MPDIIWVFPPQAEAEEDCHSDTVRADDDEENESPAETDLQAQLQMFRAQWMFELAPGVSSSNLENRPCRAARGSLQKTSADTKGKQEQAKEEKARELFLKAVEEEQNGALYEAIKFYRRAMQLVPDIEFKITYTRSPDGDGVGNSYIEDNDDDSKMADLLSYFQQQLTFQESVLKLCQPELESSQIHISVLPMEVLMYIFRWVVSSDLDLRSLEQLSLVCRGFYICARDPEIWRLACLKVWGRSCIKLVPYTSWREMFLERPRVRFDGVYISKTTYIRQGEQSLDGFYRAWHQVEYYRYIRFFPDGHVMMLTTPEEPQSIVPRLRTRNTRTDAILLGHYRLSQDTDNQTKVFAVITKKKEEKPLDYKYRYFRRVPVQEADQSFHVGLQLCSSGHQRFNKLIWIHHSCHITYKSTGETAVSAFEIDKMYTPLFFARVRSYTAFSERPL

[2] = target: Myc-GSK-3β (UniProt P49841); test: co-IP; HEK293 cells transfected as indicated for 24 h; IP for GSK-3β with anti-Myc or anti-Flag antibodies, Western blot
[3] = target: Flag-GSK-3β (UniProt P49841); test: as above
[4] = target: FBXW7 (in bladder cancer cells; endogenous or transfected not told) (UniProt Q969H0); test: co-IP; BC cells with FBXO9 silenced (Fig. S1G); legend not shown
[5] = target: T1, Flag-tagged FBXO9 (wild type); test: co-IP; T-24 and 5637 cells transfected as indicated for 12 h, then normal or hypoxic conditions for 4 h; IP with an anti-Flag antibody, Western blot
[6] = target: Flag-tagged FBXW7 (UniProt Q969H0); test: co-IP; Flag-tagged F-box proteins (or Flag-FBXO9 wild type and deletion mutants) transfected into HEK293 cells; lysates precipitated with FLAG-conjugated beads, Western blot for YAP; also with FBXW7 and FBXO9 co-expressed (Fig. S1E)
[7] = target: T1, Flag-tagged FBXO9 (wild type); test: as above
[8] = target: T2, endogenous FBXO9 (human (endogenous in T-24, 5637, HEK293)) (UniProt Q9UK97); test: co-IP; endogenous proteins in T-24, 5637 and HEK293 lysates; also T-24 with or without the GSK-3β inhibitor TDZD-8 for 8 h (interaction substantially reduced) and BC cells with FBXW7 knocked down (binding promoted)
T2 sequence: T1 sequence

binding [1]: binds
Substance: Myc-tagged YAP (wild type) (from UniProt P46937-8 1-492)

binding [2]: binds | binding [3]: binds | binding [4]: binds | binding [5]: binds
Substance: YAP (in lysates of cells 'transfected as indicated'; endogenous or transfected not told) (from UniProt P46937-8 1-492)

binding [6]: binds | binding [7]: binds | binding [8]: binds
Substance: endogenous YAP (Yes-associated protein) (from UniProt P46937-8 1-492)
